Publication doi:10.1101/2025.05.27.656411
No constants are given. Whether binding was seen depends on the method and setting. Binding seen in cells or lysates may run through a third protein. These calls come from enrichment with a bait or labelling near it, and not all partners need be listed.

Target: ECM29 fused to a 3×HA-YFP tag (Arabidopsis)
Assay: affinity purification with mass spectrometry

B1: RPN6 (protein, UniProt Q9LP45 1-419)
chain: MVSYRATTETISLALEANSSEAITILYQVLEDPSSSPEAIRIKEQAITNLCDRLTEEKRGEDLRKLLTKLRPFFSLIPKAKTAKIVRGIIDAVAKIPGTTDLQITLCKEMVEWTRAEKRTFLRQRVEARLAALLMENKEYVEALALLSTLVKEVRRLDDKLLLVDIDLLESKLHFSLRNLPKAKAALTAARTAANAIYVPPAQQGTIDLQSGILHAEEKDYKTGYSYFFEAFESFNALGDPRAVFSLKYMLLCKIMVSQADDVAGIISSKAGLQYVGPDLDAMKAVADAHSKRSLKLFENALRDYKAQLEDDPIVHRHLSSLYDTLLEQNLCRLIEPFSRVEIAHIAELIGLPLDHVEKKLSQMILDKKFAGTLDQGAGCLIIFEDPKADAIYSATLETIANMGKVVDSLYVRSAKIMS
In the case of B1, the binding is reported as “binds”.
